Some of these results come from one statement about several compounds together.
Biological target: LSD1 (Homo sapiens, UniProt O60341)
Test: LSD1 demethylase inhibition assay (Amplex Red peroxide/peroxidase-coupled)
Assay type: biochemical
Set-up: purchased BPS Bioscience Inc
Conditions: from the IC50 values for LSD1, MAO-A and MAO-B
Protocol: Compounds for use in the methods of the invention can be identified by their ability to inhibit LSD1. The ability of compounds to inhibit LSD1 can be tested as follows. Human recombinant LSD1 protein was purchased from BPS Bioscience Inc. In order to monitor LSD1 enzymatic activity and/or its inhibition rate by the LSD1 inhibitor(s) of interest, di-methylated H3-K4 peptide (Millipore) was chosen as a substrate.
Within the experiment, each concentration of inhibitor was tested in duplicate. […] The enzymatic reactions were set up in a 50 mM sodium phosphate, pH 7.4 buffer. At the end of the incubation, Amplex® Red reagent and horseradish peroxidase (HPR) solution were added to the reaction according to the recommendations provided by the supplier (Invitrogen), and left to incubate for 30 extra minutes at room temperature in the dark. A 1 μM H2O2 solution was used as a control of the kit efficiency. […] Arbitrary units were used to measure level of H2O2 produced in the absence and/or in the presence of inhibitor.
The maximum demethylase activity of LSD1 was obtained in the absence of inhibitor and corrected for background fluorescence in the absence of LSD1. The Ki (IC50) of each inhibitor was estimated at half of the maximum activity.

SMILES: N[C@H]1CCN(CCN[C@H]2C[C@@H]2c2ccc(-c3cccc(C(F)(F)F)c3)cc2)C1 (racemic) [Compound 4]
- selectivity class (LSD1 vs MAO-A and MAO-B): selective LSD1 inhibitors
